# Measurements reported in PubChem BioAssay AID1487 (National Center for Advancing Translational Sciences (NCATS), 2009).
# This is one part of the list. The main result of the screen is listed elsewhere. These columns were measured beside it and carry no call. Most of these compounds were active or inconclusive in the main read-out, so they are no random draw. Words in brackets tell the shape of the fitted curve; partial curves, single points and poor fits give uncertain potencies.
# Assay: qHTS Assay for Modulators of Lamin A Splicing
# Details: HeLa LMNA splicing GFP/RFP minigene ratio, 48 h
# Outline: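 S3 HeLa cells stably expressing lamin A-EGFP splicing minigene plus DsRed2, 600 cells/well, 48 h compound exposure at 37C. Laser-scanning cytometry; analysed as GFP (500-530 nm)/RFP (575-640 nm) total intensity ratio; 0.5% DMSO vehicle.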
# [1] = measured here: RFP viability control channel
# [2] = measured here: GFP splicing reporter channel
SMILES,AC50 [1],AC50 [2]
CCCN1CCN(c2ncnc3sc(C(=O)Nc4ccc(C(C)C)cc4)c(C)c23)CC1,"10 µM [rising, partial curve, poor fit]",
O=C(CS(=O)(=O)c1cccc2nsnc12)N1CCN(c2cccc(Cl)c2)CC1,"0.316 µM [rising, full curve, poor fit]",
CC12CCC(=O)N1C(C(=O)OCC(=O)Nc1cc(S(=O)(=O)N3CCCCC3)ccc1Cl)CS2 (centres undefined),"0.1 µM [falling, full curve, poor fit]","0.1 µM [falling, full curve]"
COc1cc(/C=C(/C#N)C(=O)NCCc2c[nH]c3ccccc23)ccc1OCc1ccccc1F,"5.62 µM [falling, single point]","5.01 µM [falling, partial curve]"
COc1cc(SC)ccc1C(=O)Nc1ccc(S(=O)(=O)Nc2nccc(C)n2)cc1,"3.98 µM [falling, partial curve]","2.24 µM [falling, full curve, poor fit]"
CC(C)OC(=O)C(C)(C)Oc1ccc(C(=O)c2ccc(Cl)cc2)cc1,"12.6 µM [rising, single point]","6.31 µM [rising, partial curve, poor fit]"
Cc1cccc(CNc2nc(-c3ccc4c(c3)OCO4)nc3ccccc23)c1,"8.91 µM [falling, partial curve]","4.47 µM [falling, partial curve]"
CN(C)S(=O)(=O)c1ccc(C(=O)OCC(=O)c2ccc(OC(F)F)cc2OC(F)F)cc1,"39.8 µM [falling, partial curve, poor fit]",
N#C/C(=C/c1ccccc1[N+](=O)[O-])c1nc(C2CC2)cs1,"7.94 µM [rising, partial curve, poor fit]",
CN=Cc1sc2ccccc2c1O,"35.5 µM [falling, single point]",
CN(CCC#N)C(=O)CSc1ncnc2sc(-c3ccccc3)cc12,"12.6 µM [rising, partial curve]","3.98 µM [rising, partial curve]"
COC(=O)c1c(-c2ccccc2)csc1NC(=O)c1c(-c2ccccc2)noc1C,"2.51 µM [rising, full curve]",
O=C(Nc1ccc(S(=O)(=O)Nc2ncccn2)cc1)c1ccc(S(=O)(=O)N2CCCC2)cc1,"0.0631 µM [rising, full curve, poor fit]",
COc1cccc(C(=O)Nc2ccc(S(=O)(=O)NCc3ccco3)cc2)c1,"35.5 µM [rising, single point]","28.2 µM [rising, single point]"
COc1ccc(Nc2ccc3c(c2)=NC2(CCCCC2)[N+]=3[O-])cc1,"15.8 µM [falling, partial curve]","11.2 µM [falling, partial curve]"
CO[C@]1(NC(=O)C2SC(=C(C(N)=O)C(=O)O)S2)C(=O)N2C(C(=O)O)=C(CSc3nnnn3C)CS[C@H]21 (some centres undefined),"7.94 µM [rising, partial curve, poor fit]",
CC1=NN(c2ccccc2)C(=O)/C1=C\C=C1/N(C)c2ccccc2C1(C)C,"2.24 µM [rising, partial curve, poor fit]",

# 6 entries from above, tab-delimited:
SMILES	AC50 [1]	AC50 [2]
O=C(CS(=O)(=O)c1cccc2nsnc12)N1CCN(c2cccc(Cl)c2)CC1	0.316 µM [rising, full curve, poor fit]	
COc1cc(SC)ccc1C(=O)Nc1ccc(S(=O)(=O)Nc2nccc(C)n2)cc1	3.98 µM [falling, partial curve]	2.24 µM [falling, full curve, poor fit]
CC(C)OC(=O)C(C)(C)Oc1ccc(C(=O)c2ccc(Cl)cc2)cc1	12.6 µM [rising, single point]	6.31 µM [rising, partial curve, poor fit]
COC(=O)c1c(-c2ccccc2)csc1NC(=O)c1c(-c2ccccc2)noc1C	2.51 µM [rising, full curve]	
COc1cccc(C(=O)Nc2ccc(S(=O)(=O)NCc3ccco3)cc2)c1	35.5 µM [rising, single point]	28.2 µM [rising, single point]
CO[C@]1(NC(=O)C2SC(=C(C(N)=O)C(=O)O)S2)C(=O)N2C(C(=O)O)=C(CSc3nnnn3C)CS[C@H]21 (some centres undefined)	7.94 µM [rising, partial curve, poor fit]	

# The list continues.

SMILES,AC50 [1],AC50 [2]
CCc1ccc(CN(C)C(=O)CCc2nnc(Cc3cccc(C)c3)o2)nc1,"35.5 µM [falling, partial curve, poor fit]","35.5 µM [falling, partial curve, poor fit]"
S=C(NCc1ccc(Cl)cc1)NC12CC3CC(CC(C3)C1)C2,"31.6 µM [rising, single point]","17.8 µM [rising, single point]"
COc1cccc(CN(C)C(=O)c2ccc(S(=O)(=O)N3CCCC3)cc2)c1OC,,"0.2 µM [rising, full curve, poor fit]"
Cc1c(O)c(=O)n(-c2ccccc2)n1C,,"0.00224 µM [falling, full curve, poor fit]"
COc1cccc(C(C)NC(=O)Nc2cccc(C(F)(F)F)c2)c1 (centres undefined),"15.8 µM [falling, partial curve, poor fit]","12.6 µM [falling, single point]"
S=C(Nc1ccc(Cl)c(Cl)c1)N1CCOCC1,"12.6 µM [rising, partial curve]","8.91 µM [rising, partial curve, poor fit]"
Cc1ccc(S(=O)(=O)Nc2cc(Cl)c(O)cc2C)cc1,"20 µM [rising, single point]",
Cc1ccc(Cn2c(N3CCCCCC3)nc3c2c(=O)[nH]c(=O)n3C)cc1,,"35.5 µM [rising, single point]"
CCN(CC)C(=S)NC(=O)c1cccnc1,,"10 µM [rising, partial curve, poor fit]"
Cc1cc(Cl)ccc1NC(=S)NCc1ccco1,"35.5 µM [rising, single point]",
Clc1ccc(OCc2nc(-c3ccccn3)no2)c(Br)c1,"35.5 µM [rising, single point]","35.5 µM [rising, single point]"
COc1ccccc1/C=C/C(=O)Nc1ccc(N2CCOCC2)cc1,"35.5 µM [falling, single point]","35.5 µM [falling, single point]"
O=C1CCCC2(O)C1C(c1cccc(Br)c1)NC(=O)N2Cc1ccccc1 (centres undefined),"0.0562 µM [rising, full curve, poor fit]","0.0224 µM [rising, full curve, poor fit]"
CCOc1ccc(C(=O)Cn2c(=O)n3nc(CCn4nc(C)cc4C)nc3c3cc(OC)c(OC)cc32)cc1,"0.355 µM [falling, single point]","0.251 µM [falling, single point]"
CC1CCc2c(sc(Nc3nc4c(F)cccc4s3)c2C(N)=O)C1 (centres undefined),,"10 µM [falling, partial curve, poor fit]"
COc1ccc(S(=O)(=O)N2CCCCC2C(=O)O)cc1OC (centres undefined),"20 µM [falling, partial curve]",
